About 15 (0.7%) of roughly 2,200 compounds were called active.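 The calls were made as follows: active = fitted half-maximal concentration for loss of luminescence signal no more than a set limit of log units above the top tested concentration; inconclusive = flat fit with 30 to 70% signal loss, or invalid fit; inactive = half-maximal concentration above that set limit.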 This is one part of the list.
Experiment: inhibitors of ADP-Glo detection reagents, dose response, artefact control for GSK3beta inhibitor project, biochemical, luminescence, cell-free, homogeneous (AID 434947);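 also: kinase-free counter screen of ADP-Glo detection reagents for GSK3beta hits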
Details: 5 uM ADP

EC50, inactive:
Cn1c(SCc2nnc(-c3ccc(F)cc3)o2)nnc1C1COc2ccccc2O1 (stereo unspecified) > 30 µM
CN1CCN(/N=C2/C(=O)Nc3ccc([N+](=O)[O-])cc32)CC1 > 30 µM
Cc1c(/C=N/NC(=O)COc2ccccc2[N+](=O)[O-])c2ccccc2n1C > 30 µM
COc1cccc2cc(C(=O)OC(C)C(=O)c3ccc(C)cc3)c(=O)oc12 (stereo unspecified) > 30 µM
N#CCCSc1nc(N2CCOCC2)c2c(c1C#N)CCCC2 > 30 µM
COC(=O)C1=C(C)N(Cc2ccccc2)C(=NCc2ccc(OC)cc2)N[C@H]1c1cccc(F)c1 > 30 µM
O=C(Nc1cccc(F)c1)c1cccc2c1C(=O)N(C1CCCCC1)C2 > 30 µM
CC(=O)N1CCc2c(sc(NC(=O)C3CCCN3S(=O)(=O)c3cccs3)c2C(N)=O)C1 (stereo unspecified) > 30 µM
C[C@]12C=CC(=O)C=C1CC[C@@H]1C2[C@@H](O)C[C@@]2(C)C1CC[C@]2(O)C(=O)COC(=O)CCC(=O)O (stereo partly specified) > 30 µM
N#Cc1c(-c2ccccc2)nc(-c2ccncc2)[nH]c1=O > 30 µM
COc1ccc(S(=O)(=O)NCC(c2ccc3c(c2)OCO3)N2CCOCC2)cc1 (stereo unspecified) > 30 µM
CC1=C(C(=O)OCC2CCCO2)C(c2ccc(O)cc2)NC(=O)N1 (stereo unspecified) > 30 µM
C/C(=N\Nc1nccnc1Cl)c1ccc(Br)cc1 > 30 µM
CC(=O)Nc1c(-c2ccccc2)nc2ccc(Cl)cn12 > 30 µM
COc1ccc(-c2nn(-c3ccccc3)cc2CO)cc1OC > 30 µM
O=C(COC(=O)C1CCN(/C=C/C(=O)C(F)(F)F)CC1)Nc1ccccc1 > 30 µM
N#CC(=C=[N-])c1nc2ccccc2nc1-[n+]1cccc(NC(=O)c2ccccc2)c1 > 30 µM
COc1ccc2cc(C(=O)C3CCCN(C(=O)c4sc(C)nc4C)C3)ccc2c1 (stereo unspecified) > 30 µM
COc1ccc(/C=C2/Sc3ccc(C(=O)NCCN4CCCCCC4)cc3NC2=O)cc1 > 30 µM
O=c1cc(-c2ccccc2Cl)oc2cccc(O)c12 > 30 µM
Cc1nc2[nH]c(=O)c3c(n2n1)NC1=C(C(=O)CC(C)(C)C1)C3c1ccc(F)cc1 (stereo unspecified) > 30 µM
Cc1cc(C)c(C#N)c(SCC(=O)c2ccc(Cl)cc2Cl)n1 > 30 µM
O=C(CC1SC(N2CCCCC2)=NC1=O)Nc1cccc(C(F)(F)F)c1 (stereo unspecified) > 30 µM
CC(C)Nc1nc(N)c(C(=O)C23CC4CC(CC(C4)C2)C3)s1 > 30 µM
CCCn1nc(NC(=O)C(C)(C)C)c2cc3cc(OC)ccc3nc21 > 30 µM
CCOC(=O)CC(=O)CSc1ccc2nnc(-c3cccc(F)c3)n2n1 > 30 µM
CCOC(=O)c1nnn(-c2nonc2N)c1-c1ccc(OC)cc1 > 30 µM
CCO[C@H]1OC(C(=O)N2CCN(Cc3ccccc3)CC2)=C[C@@H](C)[C@@H]1CCCO > 30 µM
COc1cccc(C2C3=C(CCCC3=O)Nc3[nH]n(-c4ccccc4)c(=O)c32)c1 (stereo unspecified) > 30 µM
O=[N+]([O-])c1ccccc1/C=N/n1c(C2CCCCC2)n[nH]c1=S > 30 µM
COc1ccc(-n2c(Cc3cccn3C)nnc2SCC(=O)NCC2CCCO2)cc1 (stereo unspecified) > 30 µM
O=C(Nc1cccc(F)c1)Nc1ccccn1 > 30 µM
CCCn1cc(SCC(=O)NCc2ccco2)c2ccccc21 > 30 µM
c1ccc(CCCCNCC2COc3ccccc3O2)cc1 (stereo unspecified) > 30 µM
O=C(c1ccc(Cl)nc1)N1CCN(C/C=C/c2ccccc2)CC1 > 30 µM
CCc1ccc(NC(=O)C(NS(=O)(=O)c2cccc3nsnc23)c2ccccc2)cc1 (stereo unspecified) > 30 µM
CC(=O)Nc1ccc(C(=O)OCCCOC(=O)c2ccc(NC(C)=O)cc2)cc1 > 30 µM
Cc1ccc(NC2=CC(=O)CC(C)(C)C2)cc1C > 30 µM
CCCCCCSc1ccc([C@H]2N[C@@](CC(C)C)(C(=O)OC)[C@H]3C(=O)N(C)C(=O)[C@@H]23)cc1 > 30 µM
Cc1cccc(C(=O)NC2CC3CCCC(C2)N3Cc2ccccc2)c1 (stereo unspecified) > 30 µM
CCc1ccc(C2CC(c3ccc(C)cc3)Nc3nc(N)nn32)cc1 (stereo unspecified) > 30 µM
CCOC(=O)c1c(-c2ccc(C)o2)csc1N > 30 µM
CCCn1nc(NC(=O)c2cccs2)c2cc3cccc(C)c3nc21 > 30 µM
CC(C)(C)c1csc(NC(=O)c2cccnc2)n1 > 30 µM
CCOC(=O)c1sc(Nc2ccccc2)nc1C > 30 µM
Fc1ccc(CSc2nnc(-c3ccccn3)o2)cc1 > 30 µM
Nc1nonc1-n1nnc(C(=O)N/N=C/c2ccc(OCc3ccccc3F)cc2)c1CN1CCCCC1 > 30 µM
COCCn1c(SCC(=O)Nc2ccc(Cl)c(S(=O)(=O)N(C)C)c2)nc2ccccc21 > 30 µM
Nc1nc(Nc2cccc(Cl)c2)nc(NCCO)c1[N+](=O)[O-] > 30 µM
CN1CCc2c(sc3c2C(=O)NC(c2cccs2)N3)C1 (stereo unspecified) > 30 µM
O=C(CCS(=O)(=O)Cc1ccccc1)Nc1ncc([N+](=O)[O-])s1 > 30 µM
Cc1ccc(OCC(=O)N/N=C\c2ccc(O)cc2)c([N+](=O)[O-])c1 > 30 µM
COc1cc(C2C(C#N)=C(C)NC3=C2C(=O)CC(C)(C)C3)ccc1O (stereo unspecified) > 30 µM
CC(=O)N1CCc2c(sc(NC(=O)CS(=O)(=O)c3ccc(F)cc3)c2C(N)=O)C1 > 30 µM
CN(C)C(CNC(=O)c1ccc2ccccc2c1)c1ccco1 (stereo unspecified) > 30 µM
CSc1nc(SCC(=O)NC(c2ccccc2)c2ccccc2)c2c3c(sc2n1)CN(C)CC3 > 30 µM

Grouped by structure: the compounds so far with a tert-butyl group.
EC50, inactive:
CCCn1nc(NC(=O)C(C)(C)C)c2cc3cc(OC)ccc3nc21 > 30 µM
CC(C)(C)c1csc(NC(=O)c2cccnc2)n1 > 30 µM
